## Melanoma cell counts after drug treatment

Data from the primary screen of doi:10.1371/journal.pone.0140310, rounded.

Compounds and concentrations:
gemcitabine (0.0004 µM): Nc1ccn([C@@H]2O[C@H](CO)[C@@H](O)C2(F)F)c(=O)n1
IMD-0354 (0.016 µM): O=C(Nc1cc(C(F)(F)F)cc(C(F)(F)F)c1)c1cc(Cl)ccc1O
tozasertib (0.006 µM): Cc1cc(Nc2cc(N3CCN(C)CC3)nc(Sc3ccc(NC(=O)C4CC4)cc3)n2)n[nH]1
vismodegib (1 µM): CS(=O)(=O)c1ccc(C(=O)Nc2ccc(Cl)c(-c3ccccn3)c2)c(Cl)c1
decitabine (0.1 µM): Nc1ncn([C@H]2C[C@H](O)[C@@H](CO)O2)c(=O)n1
temozolomide (2 µM): Cn1nnc2c(C(N)=O)ncn2c1=O
stibogluconate (2 µM): O=C(O)[C@@H]1[O][Sb](=[O])([O][Sb]2(=[O])[O][C@H]([C@H](O)CO)[C@H](O)[C@H](C(=O)O)[O]2)[O][C@H]([C@H](O)CO)[C@@H]1O (stereo partly specified)
crizotinib (0.2 µM): C[C@@H](Oc1cc(-c2cnn(C3CCNCC3)c2)cnc1N)c1c(Cl)ccc(F)c1Cl
lapatinib (0.8 µM): CS(=O)(=O)CCNCc1ccc(-c2ccc3ncnc(Nc4ccc(OCc5cccc(F)c5)c(Cl)c4)c3c2)o1
OSI-906 (0.4 µM): C[C@]1(O)C[C@@H](c2nc(-c3ccc4ccc(-c5ccccc5)nc4c3)c3c(N)nccn32)C1

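Human melanoma cell lines in 1,536-well plates were treated with a pair of drugs for 72 h, then fixed, stained and imaged. The read-out is cell count (nuclei) in % of the DMSO control; lower values mean stronger growth inhibition or killing. Concentrations were fixed for each drug; these are the lower of two levels, a fifth of the higher. No replicate spread is given; individual values may be noisy.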 Only some of the drugs and lines screened are listed, without regard to their results.

Pair	LB2518-MEL
tozasertib and temozolomide	79.1
lapatinib and OSI-906	113
crizotinib and temozolomide	81.7
temozolomide and gemcitabine	86.5
tozasertib and stibogluconate	94.3
lapatinib and tozasertib	95.8
decitabine and OSI-906	88.1
OSI-906 and temozolomide	95.5
gemcitabine and tozasertib	92.9
stibogluconate and temozolomide	94.8
OSI-906 and stibogluconate	84.5
gemcitabine and lapatinib	87.3
temozolomide and decitabine	88.4
vismodegib and gemcitabine	107
IMD-0354 and tozasertib	94.6
IMD-0354 and stibogluconate	93.7
lapatinib and decitabine	103
OSI-906 and IMD-0354	73.3
decitabine and crizotinib	107
temozolomide and vismodegib	101
crizotinib and tozasertib	78.7
IMD-0354 and crizotinib	108
gemcitabine and stibogluconate	90.9
crizotinib and stibogluconate	94.8
crizotinib and OSI-906	102
stibogluconate and vismodegib	118
IMD-0354 and temozolomide	109
temozolomide and lapatinib	111
tozasertib and OSI-906	90.1
decitabine and tozasertib	84.9
lapatinib and IMD-0354	112
gemcitabine and crizotinib	93.8
vismodegib and tozasertib	80.4
crizotinib and lapatinib	98.7
OSI-906 and gemcitabine	65.3
lapatinib and vismodegib	89.5

Some entries from above, unchanged:

| Pair | LB2518-MEL |
|---|---|
| temozolomide and vismodegib | 101 |
| crizotinib and OSI-906 | 102 |
| OSI-906 and stibogluconate | 84.5 |
| OSI-906 and temozolomide | 95.5 |